# Results: the supplement of paper PMC12542422
# Structures can show the parent of a compound that is named as a salt. ± gives the standard deviation of the averaged measurements. Some of the results follow. These are raw signals, not scaled to a control.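 Ribosome-assembly readouts in HeLa cells were imaged via ENP1 staining, with or without export block, or inducible tagged ribosomal protein reporters. Machine learning classified per-cell signal location versus solvent (DMSO) controls. Hits surpassed the DMSO false-positive mean by five standard deviations and were visually confirmed; three biological replicates.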
# Legend:
# [1] = tested on: HeLa K (ENP1 immunofluorescence, +LMB); experiment: fraction of cells with nucleolar or nucleolar/nucleoplasmic ENP1 signal (MainHitrate); higher = more cells with nucleolar/nuclear readout signal (for ENP1 -LMB: less RNAPI inhibition; for +LMB ENP1 and RP reporters: stronger nuclear/nucleolar retention, i.e. ribosome biogenesis defect); details: concentration: 1 µM; treatment time: 6 h; ENP1 +LMB; leptomycin B: 20 nM, last 1.5 h
# [2] = tested on: HeLa K (ENP1 immunofluorescence, no LMB); experiment: as above; details: concentration: 1 µM; treatment time: 6 h; ENP1 -LMB; leptomycin B: none
# HeLa RPS2-YFP reporter = experiment: fraction of reporter-positive cells with nuclear (nucleolar or nucleolar/nucleoplasmic) RPS2-YFP (MainHitrate); higher = more cells with nucleolar/nuclear readout signal (for ENP1 -LMB: less RNAPI inhibition; for +LMB ENP1 and RP reporters: stronger nuclear/nucleolar retention, i.e. ribosome biogenesis defect); details: concentration: 1 µM; treatment time: 6 h
# HeLa RPL29-GFP reporter = experiment: fraction of reporter-positive cells with nuclear (nucleolar or nucleolar/nucleoplasmic) RPL29-GFP (MainHitrate); higher = more cells with nucleolar/nuclear readout signal (for ENP1 -LMB: less RNAPI inhibition; for +LMB ENP1 and RP reporters: stronger nuclear/nucleolar retention, i.e. ribosome biogenesis defect); details: concentration: 1 µM; treatment time: 6 h
Compound,fraction [1],fraction [2],fraction of reporter-positive cells with nuclear (HeLa RPS2-YFP reporter),fraction of reporter-positive cells with nuclear (HeLa RPL29-GFP reporter)
CN1C2=CC(=O)/C(=N\NC(N)=O)C=C2CC1S(=O)(=O)O (centres undefined) [Carbazochrome sodium sulfonate],0.144 ± 0.12,0.9953 ± 0.0082,0.112 ± 0.086,0.218 ± 0.065
CC(C)c1nc(N(C)S(C)(=O)=O)nc(-c2ccc(F)cc2)c1/C=C/[C@@H](O)C[C@@H](O)CC(=O)O [Rosuvastatin calcium (Crestor)],0.096 ± 0.12,0.994 ± 0.01,0.134 ± 0.097,0.243 ± 0.087
COc1cnc(NS(=O)(=O)c2ccc(N)cc2)nc1 [Sulfameter (Bayrena)],0.103 ± 0.13,0.9981 ± 0.0032,0.111 ± 0.071,0.211 ± 0.079
CC(C)(O/N=C(\C(=O)N[C@@H]1C(=O)N2C(C(=O)[O-])=C(C[n+]3ccccc3)CS[C@H]12)c1csc(N)n1)C(=O)O [Ceftazidime Pentahydrate],0.105 ± 0.14,0.9959 ± 0.0071,0.14 ± 0.14,0.316 ± 0.26
N=C(N)N [Guanidine HCl],0.123 ± 0.17,0.981 ± 0.034,0.128 ± 0.11,0.239 ± 0.067
O=C(O)/C=C/c1ccc(Cn2ccnc2)cc1 [Ozagrel HCl],0.133 ± 0.21,0.994 ± 0.011,0.118 ± 0.087,0.241 ± 0.089
Cc1c(OCC(F)(F)F)ccnc1C[S+]([O-])c1nc2ccccc2[nH]1 (centres undefined) [Lansoprazole],0.071 ± 0.052,0.9983 ± 0.0029,0.117 ± 0.052,0.186 ± 0.056
CC(=O)O[C@H]1CC[C@@]2(C)C(=CC[C@@H]3[C@@H]2CC[C@]2(C)C(c4cccnc4)=CC[C@@H]32)C1 [Abiraterone Acetate (CB7630)],0.136 ± 0.21,0.987 ± 0.023,0.137 ± 0.069,0.217 ± 0.061
COC(=O)N/N=C/c1c[n+]([O-])c2ccccc2[n+]1[O-] [Carbadox],0.109 ± 0.15,0.9963 ± 0.0064,0.13 ± 0.14,0.322 ± 0.22
Cc1ccc(Nc2nccc(N(C)c3ccc4c(C)n(C)nc4c3)n2)cc1S(N)(=O)=O [Pazopanib HCl],0.0503 ± 0.012,0.9984 ± 0.0027,0.097 ± 0.088,0.23 ± 0.031
O=C(O)Cc1cc(I)c(Oc2ccc(O)c(I)c2)c(I)c1 [Tiratricol],0.0486 ± 0.057,0.981 ± 0.032,0.116 ± 0.098,0.188 ± 0.053
Cn1c(=O)c2c(ncn2CC(O)CO)n(C)c1=O (centres undefined) [Dyphylline (Dilor)],0.114 ± 0.084,0.997 ± 0.0052,0.117 ± 0.096,0.195 ± 0.041
Nc1[nH]cnc2ncnc1-2 [Adenine sulfate],0.105 ± 0.14,0.993 ± 0.012,0.139 ± 0.069,0.239 ± 0.11
CCC(=O)OCC(=O)[C@@]1(OC(=O)CC)[C@@H](C)C[C@H]2[C@@H]3CCC4=CC(=O)C=C[C@]4(C)[C@@]3(F)[C@@H](O)C[C@@]21C [Betamethasone Dipropionate (Diprolene)],0.0835 ± 0.071,0.999 ± 0.0017,0.15 ± 0.069,0.266 ± 0.038
CCCC(CCC)C(=O)O [Divalproex sodium],0.0739 ± 0.068,0.9982 ± 0.0032,0.109 ± 0.071,0.192 ± 0.059
C=CC1=C(C(=O)O)N2C(=O)[C@@H](NC(=O)/C(=N\O)c3csc(N)n3)[C@H]2SC1 [Cefdinir (Omnicef)],0.102 ± 0.061,0.9974 ± 0.0045,0.117 ± 0.1,0.208 ± 0.063
CC(=O)[C@H]1CC[C@H]2[C@@H]3C=CC4=CC(=O)CC[C@@]4(C)[C@@H]3CC[C@]12C [Dydrogesterone],0.152 ± 0.24,0.979 ± 0.037,0.132 ± 0.11,0.217 ± 0.074
O=c1cc[nH]c(=S)[nH]1 [2-Thiouracil],0.0801 ± 0.11,0.992 ± 0.013,0.124 ± 0.099,0.209 ± 0.033
Clc1ccc(C(Cn2ccnc2)OCc2c(Cl)cccc2Cl)c(Cl)c1 (centres undefined) [Isoconazole nitrate (Travogen)],0.133 ± 0.18,0.981 ± 0.033,0.118 ± 0.083,0.235 ± 0.073
Cc1nccn1CC1CCc2c(c3ccccc3n2C)C1=O (centres undefined) [Ondansetron hydrochloride (Zofran)],0.102 ± 0.11,0.9984 ± 0.0027,0.107 ± 0.085,0.211 ± 0.073
N#CC(c1ccc(Cl)cc1)c1c(Cl)cc(-n2ncc(=O)[nH]c2=O)cc1Cl (centres undefined) [Diclazuril],0.0833 ± 0.096,0.9946 ± 0.0094,0.111 ± 0.046,0.211 ± 0.029

# Some of these compounds in order of molar mass, largest number first.
Compound,fraction [1],fraction [2],fraction of reporter-positive cells with nuclear (HeLa RPS2-YFP reporter),fraction of reporter-positive cells with nuclear (HeLa RPL29-GFP reporter)
CC(=O)O[C@H]1CC[C@@]2(C)C(=CC[C@@H]3[C@@H]2CC[C@]2(C)C(c4cccnc4)=CC[C@@H]32)C1 [Abiraterone Acetate (CB7630)],0.136 ± 0.21,0.987 ± 0.023,0.137 ± 0.069,0.217 ± 0.061
COC(=O)N/N=C/c1c[n+]([O-])c2ccccc2[n+]1[O-] [Carbadox],0.109 ± 0.15,0.9963 ± 0.0064,0.13 ± 0.14,0.322 ± 0.22
O=C(O)/C=C/c1ccc(Cn2ccnc2)cc1 [Ozagrel HCl],0.133 ± 0.21,0.994 ± 0.011,0.118 ± 0.087,0.241 ± 0.089
